For the data set, the system named is individual lesions of metastatic thyroid cancer. How it is done: Dosimetry and estimation of average lesion uptake. A workflow was established for four-time point measurement of individual lesion radioiodine kinetics to generate area under the curve (AUC) estimation for accurate determination of the radiation dose in Gray (Gy) to individual lesions in patients undergoing RAI therapy for DTC. Positron emission tomography (PET/CT) imaging was performed after oral administration of 222 MBq (6.0 mCi) of ^124I—NaI (3D Imaging, Waco, TX). Whole-body imaging was performed at 4, 24, 48, and 96 hours after oral administration of the radioactivity (FIG. 4). Regions of interest were obtained over all visible lesions >0.5 cm within the body and multiple parameters were obtained for later analysis. The following parameters were captured in a database for each patient and each lesion: size in three dimensions (cm); standardized uptake value (SUV), maximum and average; lean body weight; and activity concentration in microcurie/gram. (FIG. 9). For these patients, the best clearance fitting curve was estimated using a dual exponential equation model comprising lesion uptake and clearance. Prior to integration, clearance fitting was adjusted to replace the decay constant of ^124I with ^131I, the therapy isotope of interest, and then integrated to obtain the AUC. This AUC was multiplied by the equilibrium dose constant for the non-penetrating P-emissions of ^131I, yielding the lesion-absorbed dose in Gy.
Range of ^131I activity to treat a chosen efficacy rate for RAI in mDTC patients. A multi-disciplinary team of nuclear medicine specialists, endocrinologists, medical oncologists, and medical physicists met weekly to make treatment decisions based on the PET data generated, including data from the methods disclosed herein.
The target radiation dose of 2000 cGy was chosen because doses above this level are often used as the threshold for patients to receive further radioiodine treatment. Based on the PI now available for the AUC, a simple calculation of the relationship between ^124I and ^131I uptake can yield a PI for the dose [dlow−dhigh]. […] Thus, the higher boundary (dhigh) corresponds to the activity to treat 97.5% of the lesions with the given uptake. By varying this boundary, it is possible to select an activity that will target 95%, 90%, or fewer of the lesions. […]

Setting [1] is: 169 treated lesions, 15 treated patients.

Results on one compound are retold here after US20250090865A1, “LESIONAL DOSIMETRY FOR TARGETED RADIOTHERAPY OF CANCER” (Memorial Sloan-Kettering Cancer Center, priority 2021, published 2025).

Take `[131I-].[Na+]` [^131I, Iodine-131]: the “treated lesions that received a dose greater than 2000 cGy” value (163 of 169 treated lesions) came out at 96%. In addition, under setting [1], the “lesion dose, interquartile range” value was 8551-52,921 cGy; the “lesion dose, range” value is 163-906,218 cGy; the median lesion dose is recorded as 22,305 cGy.
